Experimental data as given in ChEMBL document CHEMBL4316593 (Eur J Med Chem, 2019).
This continues a long series; more values of the same kind are listed elsewhere.

Experiments:
Type in all cases: cell-based
Conditions in all cases: U-87MG ATCC
[1] = Inhibition of RTK/PI3K/AKT/mTOR signaling in human U87 cells assessed as up regulation of CDA gene expression at cytotoxic IC50 measured after 48 hrs relative to control
[2] = Inhibition of RTK/PI3K/AKT/mTOR signaling in human U87 cells assessed as up regulation of G protein-coupled receptor class C group 5 member B gene expression at cytotoxic IC50 measured after 48 hrs relative to control
[3] = Inhibition of RTK/PI3K/AKT/mTOR signaling in human U87 cells assessed as up regulation of PITPNB gene expression at cytotoxic IC50 measured after 48 hrs relative to control
[4] = Inhibition of RTK/PI3K/AKT/mTOR signaling in human U87 cells assessed as up regulation of tripartite motif containing 5 gene expression at cytotoxic IC50 measured after 48 hrs relative to control
[5] = Inhibition of RTK/PI3K/AKT/mTOR signaling in human U87 cells assessed as up regulation of SNHG16 gene expression at cytotoxic IC50 measured after 48 hrs relative to control
[6] = Inhibition of RTK/PI3K/AKT/mTOR signaling in human U87 cells assessed as down regulation of TPM3 gene expression at cytotoxic IC50 measured after 48 hrs relative to control
[7] = Inhibition of RTK/PI3K/AKT/mTOR signaling in human U87 cells assessed as down regulation of UBC gene expression at cytotoxic IC50 measured after 48 hrs relative to control
[8] = Inhibition of RTK/PI3K/AKT/mTOR signaling in human U87 cells assessed as up regulation of spermatogenesis associated serine rich 2 gene expression at cytotoxic IC50 measured after 48 hrs relative to control
[9] = Inhibition of RTK/PI3K/AKT/mTOR signaling in human U87 cells assessed as down regulation of MITF gene expression at cytotoxic IC50 measured after 48 hrs relative to control
[10] = Inhibition of RTK/PI3K/AKT/mTOR signaling in human U87 cells assessed as down regulation of MED12L gene expression at cytotoxic IC50 measured after 48 hrs relative to control
[11] = Inhibition of RTK/PI3K/AKT/mTOR signaling in human U87 cells assessed as down regulation of EIF2AK4 gene expression at cytotoxic IC50 measured after 48 hrs relative to control
[12] = Inhibition of RTK/PI3K/AKT/mTOR signaling in human U87 cells assessed as down regulation of GADD45B gene expression at cytotoxic IC50 measured after 48 hrs relative to control
[13] = Inhibition of RTK/PI3K/AKT/mTOR signaling in human U87 cells assessed as down regulation of CENPN gene expression at cytotoxic IC50 measured after 48 hrs relative to control
[14] = Inhibition of RTK/PI3K/AKT/mTOR signaling in human U87 cells assessed as down regulation of IRF6 gene expression at cytotoxic IC50 measured after 48 hrs relative to control
[15] = Inhibition of RTK/PI3K/AKT/mTOR signaling in human U87 cells assessed as up regulation of USP6NL gene expression at cytotoxic IC50 measured after 48 hrs relative to control
[16] = Inhibition of RTK/PI3K/AKT/mTOR signaling in human U87 cells assessed as up regulation of translocation associated membrane protein 2 gene expression at cytotoxic IC50 measured after 48 hrs relative to control
[17] = Inhibition of RTK/PI3K/AKT/mTOR signaling in human U87 cells assessed as up regulation of Ras and Rab interactor like gene expression at cytotoxic IC50 measured after 48 hrs relative to control
[18] = Inhibition of RTK/PI3K/AKT/mTOR signaling in human U87 cells assessed as up regulation of NGFI-A binding protein 2 gene expression at cytotoxic IC50 measured after 48 hrs relative to control
[19] = Inhibition of RTK/PI3K/AKT/mTOR signaling in human U87 cells assessed as down regulation of TK1 gene expression at cytotoxic IC50 measured after 48 hrs relative to control
[20] = Inhibition of RTK/PI3K/AKT/mTOR signaling in human U87 cells assessed as up regulation of transducer of ERBB2, 1 gene expression at cytotoxic IC50 measured after 48 hrs relative to control
[21] = Inhibition of RTK/PI3K/AKT/mTOR signaling in human U87 cells assessed as up regulation of CYTH4 gene expression at cytotoxic IC50 measured after 48 hrs relative to control
[22] = Inhibition of RTK/PI3K/AKT/mTOR signaling in human U87 cells assessed as up regulation of RBMX gene expression at cytotoxic IC50 measured after 48 hrs relative to control
[23] = Inhibition of RTK/PI3K/AKT/mTOR signaling in human U87 cells assessed as down regulation of FBXO8 gene expression at cytotoxic IC50 measured after 48 hrs relative to control
[24] = Inhibition of RTK/PI3K/AKT/mTOR signaling in human U87 cells assessed as down regulation of BTBD11 gene expression at cytotoxic IC50 measured after 48 hrs relative to control
[25] = Inhibition of RTK/PI3K/AKT/mTOR signaling in human U87 cells assessed as down regulation of AKR7A2 gene expression at cytotoxic IC50 measured after 48 hrs relative to control
[26] = Inhibition of RTK/PI3K/AKT/mTOR signaling in human U87 cells assessed as down regulation of CENPW gene expression at cytotoxic IC50 measured after 48 hrs relative to control
[27] = Inhibition of RTK/PI3K/AKT/mTOR signaling in human U87 cells assessed as up regulation of biorientation of chromosomes in cell division 1 gene expression at cytotoxic IC50 measured after 48 hrs relative to control
[28] = Inhibition of RTK/PI3K/AKT/mTOR signaling in human U87 cells assessed as up regulation of glutamate dehydrogenase 1 gene expression at cytotoxic IC50 measured after 48 hrs relative to control
[29] = Inhibition of RTK/PI3K/AKT/mTOR signaling in human U87 cells assessed as up regulation of B4GALNT4 gene expression at cytotoxic IC50 measured after 48 hrs relative to control
[30] = Inhibition of RTK/PI3K/AKT/mTOR signaling in human U87 cells assessed as down regulation of PSMD7 gene expression at cytotoxic IC50 measured after 48 hrs relative to control
[31] = Inhibition of RTK/PI3K/AKT/mTOR signaling in human U87 cells assessed as down regulation of YIPF1 gene expression at cytotoxic IC50 measured after 48 hrs relative to control
[32] = Inhibition of RTK/PI3K/AKT/mTOR signaling in human U87 cells assessed as up regulation of protein C receptor gene expression at cytotoxic IC50 measured after 48 hrs relative to control

With CC(=O)C(=NNc1ccccc1C#N)C(C)=O the log2FC [1] was 2.35, the log2FC [2] was 1.3 and the log2FC [3] was 0.468. The log2FC [4] was 0.71, the log2FC [5] was 0.616 and the log2FC [6] was -0.424. It also gave a log2FC [7] of -0.323, a log2FC [8] of 1.06 and a log2FC [9] of -1.82. For the same compound, the log2FC [10] was -1.93, the log2FC [11] was -0.433 and the log2FC [12] was -2.59. The log2FC [13] was -1.07, the log2FC [14] was -0.635 and the log2FC [15] was 0.54. The log2FC [16] was 0.818, the log2FC [17] was 1 and the log2FC [18] was 1.35. The log2FC [19] was -0.652, the log2FC [20] was 0.989 and the log2FC [21] was 2.31. It also gave a log2FC [22] of 0.621, a log2FC [23] of -0.908 and a log2FC [24] of -2.66. The log2FC [25] was -0.863, the log2FC [26] was -1.33 and the log2FC [27] was 0.701. It also gave a log2FC [28] of 0.669, a log2FC [29] of 1.85 and a log2FC [30] of -0.605. The log2FC [31] was -0.789 and the log2FC [32] was 1.19.
